Measured values: PubChem BioAssay AID192 (DTP/NCI, 2004)
The list shows only some results of the screen, not a fair sample: it is rich in T/C values a quarter to a half above the control, in often repeated tests (any T/C) and in doses without a T/C. Further doses and runs are listed elsewhere. T/C gives the treated animals as a percentage of the vehicle group. Some entries give survivors of the animals treated and no T/C: the source holds a T/C of zero for them, seemingly a mark for toxic or unscored doses. Some doses without a T/C left all or most animals alive at the check, yet need not have been tolerated: survival well below the control is almost never listed, so the zero probably covers shortened survival too. Survivors were counted at the toxicity check, usually on the fifth day, unless a day is given; later deaths do not show. Schedule codes are those of the source, taken here to give the interval after Q, in days (D) or hours (H), and the number of doses after X. Some entries were tested several times; the results are listed from low to high. Some molecules as drawn cover several salts, stereoisomers or complexes of the source; a dose is that of the sample tested. Marks such as (2×) stand for listed records that agree. For survival time, this PubChem deposit counts one and a half times the control or more as active, and values a quarter to a half above the control carry no call in these data; other NCI protocols may use other cut-offs.

System: BDF1 mice, B16 melanoma ip, median survival T/C
Assay: NCI In Vivo Anticancer Drug Screen. Data for tumor model B16 Melanoma (intraperitoneal) in B6D2F1 (BDF1) mice
Details: T/C endpoint: median survival time, higher T/C = longer survival
In short: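 Read-out: survival or tumor size, given as treated/control ratio. Controls received vehicle only; animals bore transplantable tumors.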

[1] = dose: 25.0 mg/kg/injection, schedule: Q01DX009 (ip), vehicle: Klucel (hydroxypropylcellulose) (HPC)
[2] = dose: 100.0 mg/kg/injection, schedule: Q01DX009 (ip), vehicle: Klucel (hydroxypropylcellulose) (HPC)
[3] = dose: 200.0 mg/kg/injection, schedule: Q01DX009 (ip), vehicle: Klucel (hydroxypropylcellulose) (HPC)
[4] = dose: 200.0 mg/kg/injection, schedule: Q01DX009 (ip), vehicle: saline with Tween-80
[5] = dose: 12.5 mg/kg/injection, schedule: Q01DX009 (ip), vehicle: Klucel (hydroxypropylcellulose) (HPC)
[6] = dose: 200.0 mg/kg/injection, schedule: Q01DX009 (ip), vehicle: saline
[7] = dose: 400.0 mg/kg/injection, schedule: Q01DX009 (ip), vehicle: saline
[8] = dose: 50.0 mg/kg/injection, schedule: Q01DX009 (ip), vehicle: saline
[9] = dose: 100.0 mg/kg/injection, schedule: Q01DX009 (ip), vehicle: saline
[10] = dose: 50.0 micrograms/kg/injection, schedule: Q01DX009 (ip), vehicle: saline + alcohol
[11] = dose: 100.0 mg/kg/injection, schedule: Q01DX009 (ip), vehicle: saline with Tween-80

With `Clc1c(Cl)c(CBr)c(Cl)c(CBr)c1Cl` the T/C (dose: 3.12 mg/kg/injection, schedule: Q01DX009 (ip), vehicle: Klucel (hydroxypropylcellulose) (HPC)) was 125 % of control, the survivor count [1] was 10 of 10 and the survivor count (dose: 50.0 mg/kg/injection, schedule: Q01DX009 (ip), vehicle: Klucel (hydroxypropylcellulose) (HPC)) was 9 of 10. The survivor count (dose: 50.0 mg/kg/injection, schedule: Q04DX003 (ip), vehicle: saline with Tween-80) was 10 of 10, the survivor count [2] was 10 of 10 and the survivor count (dose: 100.0 mg/kg/injection, schedule: Q04DX003 (ip), vehicle: saline with Tween-80) was 10 of 10. For the same compound, the survivor count [3] was 7 of 10, the survivor count [4] was 6 of 10 and the survivor count (dose: 200.0 mg/kg/injection, schedule: Q04DX003 (ip), vehicle: saline with Tween-80) was 10 of 10. For the same compound, the survivor count (dose: 400.0 mg/kg/injection, schedule: Q04DX003 (ip), vehicle: saline with Tween-80) was 10 of 10.

In the case of `N#CO`, the survivor count (dose: 150.0 mg/kg/injection, schedule: Q01DX009 (ip), vehicle: saline) is reported as 10 of 10.

For `COc1cc(NS(C)(=O)=O)ccc1Nc1c2ccccc2nc2c(C)cccc12`, the T/C (dose: 1.25 mg/kg/injection, schedule: Q01DX009 (ip), vehicle: other) was 143 % of control, the T/C (dose: 2.5 mg/kg/injection, schedule: Q01DX009 (ip), vehicle: saline with Tween-80) was 132 and 147 % of control and the T/C (dose: 5.0 mg/kg/injection, schedule: Q01DX009 (ip), vehicle: saline with Tween-80) was 147 % of control. For the same compound, the T/C (dose: 5.0 mg/kg/injection, schedule: Q04DX003 (ip), vehicle: other) was 128 % of control, the survivor count (dose: 8.0 mg/kg/injection, schedule: Q01DX009 (ip), vehicle: saline) was 10 of 10 and the survivor count (dose: 10.0 mg/kg/injection, schedule: Q01DX009 (ip), vehicle: other) was 10 of 10. The survivor count (dose: 10.0 mg/kg/injection, schedule: Q01DX009 (ip), vehicle: saline with Tween-80) was 6 of 6 (2×), the survivor count (dose: 10.0 mg/kg/injection, schedule: Q04DX003 (ip), vehicle: other) was 10 of 10 and the survivor count (dose: 17.0 mg/kg/injection, schedule: Q01DX009 (ip), vehicle: Klucel (hydroxypropylcellulose) (HPC)) was 10 of 10. The survivor count (dose: 20.0 mg/kg/injection, schedule: Q01DX009 (ip), vehicle: other) was 9 of 10, the survivor count (dose: 20.0 mg/kg/injection, schedule: Q01DX009 (ip), vehicle: saline with Tween-80) was 6 of 6 (2×) and the survivor count (dose: 20.0 mg/kg/injection, schedule: Q04DX003 (ip), vehicle: other) was 10 of 10. For the same compound, the survivor count [1] was 9 of 10, the T/C (dose: 30.0 mg/kg/injection, schedule: Q01DX001 (ip), vehicle: saline sonified) was 133 % of control and the survivor count (dose: 37.0 mg/kg/injection, schedule: Q01DX009 (ip), vehicle: Klucel (hydroxypropylcellulose) (HPC)) was 9 of 10. For the same compound, the survivor count (dose: 40.0 mg/kg/injection, schedule: Q04DX003 (ip), vehicle: other) was 7 of 10, the survivor count (dose: 50.0 mg/kg/injection, schedule: Q04DX003 (ip), vehicle: Klucel (hydroxypropylcellulose) (HPC)) was 9 of 10 and the survivor count (dose: 100.0 mg/kg/injection, schedule: Q04DX003 (ip), vehicle: gum acacia) was 8 of 10. For the same compound, the survivor count (dose: 200.0 mg/kg/injection, schedule: Q04DX003 (ip), vehicle: gum acacia) was 6 of 10 and the survivor count (dose: 400.0 mg/kg/injection, schedule: Q04DX003 (ip), vehicle: gum acacia) was 0 of 10.

For `COc1ccc(NC(=O)Nc2cc(Cl)ccc2OC)cc1`, the survivor count [5] was 10 of 10.

For `Cc1ccc(NC(=S)NC(Cc2ccccc2)c2ccccc2)c(C)c1` (centres undefined), the survivor count [3] was 10 of 10 and the survivor count (dose: 400.0 mg/kg/injection, schedule: Q01DX009 (ip), vehicle: Klucel (hydroxypropylcellulose) (HPC)) was 10 of 10.

`c1ccc(CN2CCOC2)cc1` was tested, and the survivor count [6] was 7 of 10 and the survivor count [7] was 0 of 10.

In the case of `C=C(C)C(=O)O[C@H]1CC2=C[C@@H](C[C@@]3(C)O[C@@H]3[C@H]3OC(=O)C(=C)[C@@H]31)OC2=O`, the survivor count (dose: 30.0 mg/kg/injection, schedule: Q01DX009 (ip), vehicle: Klucel (hydroxypropylcellulose) (HPC)) is reported as 5 of 10 and the survivor count (dose: 60.0 mg/kg/injection, schedule: Q01DX009 (ip), vehicle: Klucel (hydroxypropylcellulose) (HPC)) is reported as 0 of 10.

For `O=C1C(Cl)=C(N=Nc2c(Cl)c(O)c3ccccc3c2O)C(=O)c2ccccc21`, the survivor count [8] was 6 of 6 and the survivor count [9] was 5 of 6.

In the case of `N#CCN1CCCCC1`, the survivor count (dose: 25.0 mg/kg/injection, schedule: Q01DX009 (ip), vehicle: saline) is reported as 10 of 10, the survivor count [8] is reported as 9 of 10 and the survivor count [9] is reported as 0 of 10.

For `COc1cc2cc(c1Cl)N(C)C(=O)CC(OC(=O)CC(C)C)C1(C)OC1C(C)C1CC(O)(NC(=O)O1)C(OC)/C=C/C=C(C)C2` (centres undefined), the T/C (dose: 4.0 micrograms/kg/injection, schedule: Q01DX009 (ip), vehicle: saline + alcohol) was 138 % of control, the T/C (dose: 6.2 micrograms/kg/injection, schedule: Q01DX009 (ip), vehicle: saline + alcohol) was 138 % of control and the T/C (dose: 7.0 micrograms/kg/injection, schedule: Q01DX009 (ip), vehicle: saline + alcohol) was 148 % of control. The T/C [10] was 129 % of control, the survivor count [10] was 10 of 10 and the survivor count (dose: 100.0 micrograms/kg/injection, schedule: Q01DX009 (ip), vehicle: saline + alcohol) was 8 of 10 and 10 of 10. For the same compound, the survivor count (dose: 200.0 micrograms/kg/injection, schedule: Q01DX009 (ip), vehicle: saline + alcohol) was 3 of 10 and 5 of 10.

In the case of `CN(C)CCCn1c2c(c3ccccc31)CCCCCC2`, the survivor count [9] is reported as 2 of 10, the survivor count [6] is reported as 1 of 10 and the survivor count [7] is reported as 0 of 10.

In the case of `CC(NC(=O)c1ccccc1)C(=O)NC(CSC(c1ccccc1)c1ccccc1)C(=O)O` (centres undefined), the survivor count (dose: 100.0 mg/kg/injection, schedule: Q04DX003 (ip), vehicle: saline) is reported as 7 of 10, the survivor count (dose: 200.0 mg/kg/injection, schedule: Q04DX003 (ip), vehicle: saline) is reported as 3 of 10 and the survivor count (dose: 400.0 mg/kg/injection, schedule: Q04DX003 (ip), vehicle: saline) is reported as 0 of 10.

`[N-]=[N+]=C1N=CN=C1c1ncn[nH]1` was tested, and the T/C (dose: 12.5 mg/kg/injection, schedule: Q01DX009 (ip), vehicle: carboxymethylcellulose (CMC)) was 126 % of control, the T/C (dose: 25.0 mg/kg/injection, schedule: Q01DX009 (ip), vehicle: carboxymethylcellulose (CMC)) was 143 % of control and the T/C (dose: 50.0 mg/kg/injection, schedule: Q01DX009 (ip), vehicle: carboxymethylcellulose (CMC)) was 126 % of control. For the same compound, the survivor count (dose: 100.0 mg/kg/injection, schedule: Q01DX009 (ip), vehicle: carboxymethylcellulose (CMC)) was 3 of 10.

`NC(CCl)=NCC12CC3CC(CC(C3)C1)C2` was tested, and the T/C (dose: 6.25 mg/kg/injection, schedule: Q01DX009 (ip), vehicle: Klucel (hydroxypropylcellulose) (HPC)) was 134 % of control and the T/C [5] was 133 % of control.

In the case of `O=C(Nc1cccc(C(F)(F)F)c1)c1ccc(C(=O)Nc2cccc(C(F)(F)F)c2)cc1`, the survivor count [11] is reported as 10 of 10, the survivor count [4] is reported as 9 of 10 and the survivor count (dose: 400.0 mg/kg/injection, schedule: Q01DX009 (ip), vehicle: saline with Tween-80) is reported as 9 of 10.

For `O=C(CBr)CC(O)(C(F)(F)F)C(F)(F)F`, the survivor count (dose: 6.0 mg/kg/injection, schedule: Q04DX003 (ip), vehicle: saline) was 10 of 10 and the survivor count (dose: 12.0 mg/kg/injection, schedule: Q04DX003 (ip), vehicle: saline) was 4 of 10.

For `CC(=O)OCC1OC(OC2=C(CC=C(C)C)C(=O)c3ccccc3C2=O)C(OC(C)=O)C(OC(C)=O)C1OC(C)=O` (centres undefined), the survivor count [5] was 10 of 10, the survivor count [1] was 10 of 10 and the survivor count [2] was 10 of 10. The survivor count [3] was 6 of 10.

In the case of `O=[N+]([O-])c1cc([N+](=O)[O-])c(Nn2c3ccccc3c3ccccc32)c([N+](=O)[O-])c1`, the survivor count [11] is reported as 1 of 6.

`CCCN(CCC)C(=O)c1ccncc1` was tested, and the survivor count [3] was 10 of 10.

For `CC(C)NNC(=O)C(N)CO` (centres undefined), the survivor count [7] was 10 of 10.
